Percent effect of library compounds

Sequences of proteins named here, by UniProt entry; tags and fusion partners are left off. Residues count along the entry.
UniProt I6X8D2, whole entry: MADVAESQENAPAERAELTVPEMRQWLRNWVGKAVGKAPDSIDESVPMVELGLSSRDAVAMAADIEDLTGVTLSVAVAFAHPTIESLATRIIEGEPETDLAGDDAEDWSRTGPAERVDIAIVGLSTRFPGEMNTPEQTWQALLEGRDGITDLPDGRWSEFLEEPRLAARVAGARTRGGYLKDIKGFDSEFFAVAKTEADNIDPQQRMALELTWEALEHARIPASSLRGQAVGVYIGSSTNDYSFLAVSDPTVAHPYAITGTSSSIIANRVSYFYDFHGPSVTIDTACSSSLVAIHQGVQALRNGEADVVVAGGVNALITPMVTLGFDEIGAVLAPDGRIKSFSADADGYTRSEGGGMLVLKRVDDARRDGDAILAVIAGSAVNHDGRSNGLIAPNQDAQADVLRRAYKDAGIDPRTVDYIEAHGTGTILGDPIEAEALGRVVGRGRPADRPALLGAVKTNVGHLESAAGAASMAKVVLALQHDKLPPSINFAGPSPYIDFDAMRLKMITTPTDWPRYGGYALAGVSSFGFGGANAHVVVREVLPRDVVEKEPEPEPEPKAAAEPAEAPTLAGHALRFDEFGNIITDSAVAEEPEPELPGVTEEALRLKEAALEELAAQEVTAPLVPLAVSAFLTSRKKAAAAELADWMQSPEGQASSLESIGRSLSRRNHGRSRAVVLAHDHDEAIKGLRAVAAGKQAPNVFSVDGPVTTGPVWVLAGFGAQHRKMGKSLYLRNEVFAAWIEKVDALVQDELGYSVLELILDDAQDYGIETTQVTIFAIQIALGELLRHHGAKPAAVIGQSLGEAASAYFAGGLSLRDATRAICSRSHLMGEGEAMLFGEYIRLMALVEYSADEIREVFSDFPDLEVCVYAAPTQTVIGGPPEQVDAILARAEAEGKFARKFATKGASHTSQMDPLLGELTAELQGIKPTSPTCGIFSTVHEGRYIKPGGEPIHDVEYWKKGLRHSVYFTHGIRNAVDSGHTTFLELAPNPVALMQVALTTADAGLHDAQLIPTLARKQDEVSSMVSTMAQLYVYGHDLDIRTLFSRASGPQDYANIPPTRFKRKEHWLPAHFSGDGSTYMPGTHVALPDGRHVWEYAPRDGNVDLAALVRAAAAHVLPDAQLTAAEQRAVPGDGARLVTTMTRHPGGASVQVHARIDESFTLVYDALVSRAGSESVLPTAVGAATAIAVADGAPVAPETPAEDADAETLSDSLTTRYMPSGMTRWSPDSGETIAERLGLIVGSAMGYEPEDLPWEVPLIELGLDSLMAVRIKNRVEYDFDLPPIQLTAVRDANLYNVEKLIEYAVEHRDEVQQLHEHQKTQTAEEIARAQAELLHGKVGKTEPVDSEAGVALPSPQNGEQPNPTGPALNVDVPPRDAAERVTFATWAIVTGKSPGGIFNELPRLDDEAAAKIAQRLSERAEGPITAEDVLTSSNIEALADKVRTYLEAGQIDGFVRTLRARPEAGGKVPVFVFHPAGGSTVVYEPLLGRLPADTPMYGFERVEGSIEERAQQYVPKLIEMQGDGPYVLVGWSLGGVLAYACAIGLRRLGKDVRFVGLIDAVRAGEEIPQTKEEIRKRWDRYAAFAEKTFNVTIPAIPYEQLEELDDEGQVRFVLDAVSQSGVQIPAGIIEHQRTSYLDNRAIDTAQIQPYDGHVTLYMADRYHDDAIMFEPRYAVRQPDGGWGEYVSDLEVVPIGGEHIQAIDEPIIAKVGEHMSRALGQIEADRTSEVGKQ
UniProt Q8IDJ8, 1-583: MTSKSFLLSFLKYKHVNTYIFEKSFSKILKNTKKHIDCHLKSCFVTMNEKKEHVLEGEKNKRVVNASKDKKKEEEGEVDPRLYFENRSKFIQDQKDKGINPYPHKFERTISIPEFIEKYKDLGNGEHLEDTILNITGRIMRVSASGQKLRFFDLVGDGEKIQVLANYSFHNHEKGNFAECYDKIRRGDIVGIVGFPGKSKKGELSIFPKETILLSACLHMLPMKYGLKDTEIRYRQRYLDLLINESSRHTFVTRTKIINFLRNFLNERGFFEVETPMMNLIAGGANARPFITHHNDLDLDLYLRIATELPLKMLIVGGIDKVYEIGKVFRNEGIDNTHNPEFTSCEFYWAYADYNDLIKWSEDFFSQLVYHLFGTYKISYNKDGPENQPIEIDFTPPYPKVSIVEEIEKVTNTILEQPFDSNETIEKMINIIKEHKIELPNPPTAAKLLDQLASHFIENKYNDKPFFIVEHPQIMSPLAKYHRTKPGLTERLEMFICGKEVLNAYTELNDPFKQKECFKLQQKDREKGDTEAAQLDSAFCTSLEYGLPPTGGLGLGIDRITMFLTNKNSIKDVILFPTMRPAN
UniProt A4I591, 1-473: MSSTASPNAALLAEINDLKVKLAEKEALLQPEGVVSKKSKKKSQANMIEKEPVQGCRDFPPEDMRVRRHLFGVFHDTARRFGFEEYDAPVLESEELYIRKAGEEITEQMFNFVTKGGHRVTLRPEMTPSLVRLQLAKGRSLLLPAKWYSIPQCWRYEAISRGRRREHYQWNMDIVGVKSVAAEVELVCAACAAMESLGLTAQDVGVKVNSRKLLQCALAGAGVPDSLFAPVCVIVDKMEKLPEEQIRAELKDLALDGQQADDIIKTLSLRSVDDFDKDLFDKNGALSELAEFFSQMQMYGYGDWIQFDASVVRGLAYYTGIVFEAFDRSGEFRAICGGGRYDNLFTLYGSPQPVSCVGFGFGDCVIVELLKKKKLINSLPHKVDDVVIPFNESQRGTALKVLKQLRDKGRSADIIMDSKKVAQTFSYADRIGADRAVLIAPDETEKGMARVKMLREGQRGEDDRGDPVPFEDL
UniProt P9WFT3, whole entry: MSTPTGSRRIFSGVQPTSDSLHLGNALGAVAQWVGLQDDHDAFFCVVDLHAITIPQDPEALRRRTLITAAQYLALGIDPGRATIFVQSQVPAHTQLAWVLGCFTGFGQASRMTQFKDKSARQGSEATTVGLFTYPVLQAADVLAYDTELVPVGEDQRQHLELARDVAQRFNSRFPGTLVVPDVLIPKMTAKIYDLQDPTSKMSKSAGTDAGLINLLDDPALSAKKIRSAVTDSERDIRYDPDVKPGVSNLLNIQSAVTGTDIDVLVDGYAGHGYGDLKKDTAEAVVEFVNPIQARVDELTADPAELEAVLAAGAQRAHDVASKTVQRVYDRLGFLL

The values are deposited in ChEMBL (CHEMBL3988442, “University of Dundee, Small-Polar-MMV Screening Library” (2021)).

Each number is a percent effect as filed.
The record does not define 0% and 100%; most values in the screen are far below 50% and negative numbers occur (in some assays of this library far below -100).
This is an unselected part of the compounds tested.
A dash means the value is not listed here; it may have been measured.

A: 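Enzyme assay of the thioesterase domain of polyketide synthase 13; the read-out is not stated. Target: Polyketide synthase Pks13, Mycobacterium tuberculosis (UniProt I6X8D2). Tested at 30 µM. The record gives no direction; the compounds picked for IC50 retests had high values, so higher reads as stronger inhibition. Of about 67,000 compounds tested this way, about 300 (0.46%) reached 50% or more in at least one test.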
B: 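Enzyme assay of the cytosolic lysyl-tRNA synthetase in 384-well plates, read by luminescence. Target: Lysine-tRNA ligase, Plasmodium falciparum 3D7 (UniProt Q8IDJ8). Compounds at 30 µM. Direction is inferred from only a few compounds that gave an IC50; most scored high, so higher reads as stronger inhibition. About 69,000 compounds were tested under these conditions; 0.071% (about 49) showed 50% or more at least once.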
C: 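Histidine-tRNA ligase, Leishmania infantum (UniProt A4I591). Enzyme assay of histidyl-tRNA synthetase; the read-out is not stated. Compounds at 30 µM. Direction is inferred from retests: higher values go with stronger inhibition. The assay is labelled LdHisRS but filed under L. infantum. Size under these conditions: about 69,000 compounds, about 410 of them at 50% or above in at least one test.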
D: 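Enzyme assay of tryptophanyl-tRNA synthetase; the read-out is not stated. Target: Tryptophan-tRNA ligase, Mycobacterium tuberculosis (UniProt P9WFT3). Concentration: 10 µM. Direction is not recorded; retested compounds ran higher, which suggests that high means inhibition. Of about 65,000 compounds tested this way, about 64 (0.098%) reached 50% or more in at least one test.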

SMILES,A,B,C,D
O=C(Nc1ccc(-n2cncn2)c(F)c1)C1CCN(C(=O)C2CC2)CC1,-45.1,3.599,17.24,-4.862
O=C(Nc1cc(F)ccc1OCC1CCCO1)NC1CC1 (stereo not given),-9.32,-0.1798,9.615,-2.03
CNC(=O)[C@@]12CCC3(CCN(S(C)(=O)=O)CC3)[C@@H]1CN(S(C)(=O)=O)C2,-11.13,-2.145,13.21,-0.1676
CC(=O)NCC1CCC2(CCN(c3ncc(C(C)=O)c(C)n3)CC2)O1 (stereo not given),-5.999,0.7673,9.677,-4.354
CCN1CCCC(O)(CNCc2ccccc2F)C1 (stereo not given),-9.078,4.899,32.35,9.217
CCCOC1CCCN(Cc2nc(-c3cccs3)oc2C)C1 (stereo not given),-39.16,7.69,5.128,-3.631
NCC1(c2cccc(C(F)(F)F)c2)CCCCC1,-22.84,3.758,9.091,-2.018
Cn1cccc1C(=O)N1CCC2(CCCN2c2ncccn2)CC1,2.915,9.058,0,-4.869
O=C(CC1CC1)N1C[C@@H]2CCN(c3cccnc3)C[C@@H]2C1,-22.5,6.82,21.1,1.493
Cc1nn(C)c(Cl)c1C1CCCN1C(=O)c1cnccn1 (stereo not given),-7.588,-0.9367,3.509,-5.632
CN1CCC(CN(C)C(=O)c2cc(C3CCCN3C)ccn2)CC1 (stereo not given),9.76,0.251,10,-
Cc1cc(C)nc(NCCSc2cnn[nH]2)n1,-131.9,0.6646,9.333,-3.802
CCc1cc(-c2cc[nH]n2)nc(N2CCOCC2)n1,-19.37,3.818,1.639,7.932
CC(C)(C)NCc1nn(Cc2ccccc2)nc1-c1ccccc1,-12.14,2.316,10.34,-0.6477
O=C(NCc1cncc2c1CCN(Cc1ccc(F)cc1)C2)C1CC1,-20.58,5.251,32.43,-2.67
O=C(CCc1cccs1)N1CCCC1c1noc(C2CC2)n1 (stereo not given),2.288,-0.02026,2.679,-4.035
CN(C)Cc1cc(C2CCCCN2S(=O)(=O)Cc2ccccc2)nn1C (stereo not given),6.07,2.334,21.28,0.5465
Cc1noc(C2CCN(C(=O)c3cc(Cl)c(Cl)n3C)CC2)n1,-30.77,-0.9962,10,-5.518
O=C(Nc1ccc2ncccc2c1)C1CC(=O)N(Cc2ccccn2)C1 (stereo not given),-3.66,0.4155,15.09,2.473
O=C(N1CCCC1)N1CCC(Nc2ccncn2)CC1,-33.33,0.2886,12.82,-2.952
CCN(CC1CCOCC1)C(=O)Cn1cccc(C(F)(F)F)c1=O,-18.67,-0.8837,13.16,-4.678
N#Cc1cccc(OC2CCN(C(=O)c3cncc(O)c3)CC2)c1,24.78,-0.1937,5.882,1.1
CC(C)N1CCCn2nc(C(=O)NCCc3ccccn3)cc2C1,-,2.352,18.25,2.913
CCC1CN(C(=O)c2csc3nc(-c4ccc(Cl)cc4)cn23)CCN1 (stereo not given),3.61,-3.54,12.2,-1.039
CC(C)c1cc(C(=O)N2Cc3ccccc3CC2C(=O)O)nn1C (stereo not given),-3.258,1.051,3.665,2.408
CCOCCOC(C)C(=O)Nc1ccc2ccn(CC(=O)NC)c2c1 (stereo not given),-14.5,3.529,10.42,-2.001
Cc1cc(CN(C)C(=O)NC2CCN(C3CC3)CC2)no1,-21.96,0.5823,21.3,-4.679
COCCNc1cc(C)nn2cnnc12,-7.753,-0.6755,8.621,-1.036
CC(C)[C@H]1COC(=O)N1CC(=O)N1CCCN(C(=O)c2ccoc2)CC1,-1.84,5.554,14.17,-1.013
O=C(c1ncncc1Cl)N1CCN(c2ccc(Cl)cc2)CC1,-3.914,6.242,8.772,-4.479
CCC[C@@H]1CN(C(=O)c2cc(-c3cccs3)n(C)n2)C[C@H]1N(C)C,-10.64,3.294,19.05,0.144
Cn1cc(C[C@H]2[C@H](N3CCOCC3)CCN2C2CCOCC2)cn1,0.1254,5.407,7.895,-8.296
CC(C)CNc1nc(C(=O)/N=c2\[nH]nc(C(C)(C)C)s2)cs1,-2.673,-0.2511,1.905,-0.919
CCOc1ncccc1NC(=O)N1CCN(Cc2ccncc2)CC1,-10.48,0.8174,20.18,-0.2903
CCCn1nc2c(cc1=O)CN(Cc1cc(C)on1)CC2,12.35,8.466,55.77,6.567
O=C(Cc1c[nH]c(=O)[nH]c1=O)N1CCCCC1CCc1cccc(O)c1 (stereo not given),5.813,1.123,12.4,0.08211
Cc1c(C2CC2)n[nH]c1NC(=O)C1CCCN(C(=O)NCC(C)C)C1 (stereo not given),-5.439,2.535,8.696,-1.708
Cc1nc(CC(=O)N2CCN(Cc3ccc(C#N)cc3)CC2)cs1,-,-0.07861,9.434,3.133
CN(C)C(=O)CN1CC[C@H]2CN(C3CCOCC3)C[C@@H]2C1=O,-29.56,6.952,11.65,-4.446
CCS(=O)(=O)N(C)C1CCN(C(=O)c2ccc(Cl)cc2)CC1,-0.3337,3.356,8.036,-2.668
Cc1cccc(CN2CCc3nnc(CN4CCCCC4)n3CC2)n1,-6.976,1.518,5.769,-7.413
COC(=O)C(NC(=O)c1cc(C)ccc1C)c1cccnc1 (stereo not given),-2.577,4.218,20,3.558
CC(=O)Nc1nc(C(=O)NCc2ccc(N3CCCC3)nc2)cs1,7.022,-0.6794,7.826,-0.8946
CC(C)C(=O)N1CCN(Cc2ccccn2)CC2(CC(=O)N(C)C2)C1 (stereo not given),-12.34,0.8631,19.27,-1.493
Cc1cc(OCC(=O)N2CCCC(c3noc(C(C)C)n3)C2)no1 (stereo not given),-2.862,1.026,1.724,-3.993
Cc1ccc(CN2CCc3c(COC(C)C)nn(C)c3C2)s1,7.496,1.712,20.97,2.703
c1ccc(-c2nccc(CNCC3CCCN3c3cccnn3)n2)cc1 (stereo not given),-16.13,-5.688,15.2,-4.088
COc1cccc(CCCNC(=O)N2CCC(O)(C(F)(F)F)C2)c1 (stereo not given),-33.76,9.787,11.69,2.882
NC(=O)C1CCN(C(=O)CCn2ccc3ccc(F)cc32)CC1,-23.6,4.582,15.79,1.19
CN(C)CCCNCC1CCOC(C)(C)C1 (stereo not given),-6.957,0.7355,12.33,0.1696
CCOCc1nc(CSc2ccncc2)n(C2CCN(C)CC2)n1,-16.83,2.7,28.36,13.19
CC(C)c1nc(O)c2nnn(C[C@@H]3CCCN(Cc4ccsc4)C3)c2n1,5.84,2.078,9.859,-5.095
NC(=O)C1CCN(C(=O)NCc2csc(Br)c2)CC1,-4.672,0.7913,18.35,3.193
COC[C@@H]1CCC[C@]12CN(Cc1ccco1)CCO2,4.997,5.945,12.82,2.905
Cc1ccc(C(=O)N2CCCC(N)CC2)cc1N1CCNC1=O (stereo not given),-6.819,10.9,9.375,-2.183
Cc1ccc(CN2CCOC(c3cnccn3)C2)s1 (stereo not given),2.476,0.6403,14.49,-3.455
Cc1ccc(NC2CCN(C(=O)c3cccc4c3ccn4C)CC2)nn1,-5.381,1.054,19.64,-4.283
CN1C(=O)CN(C(=O)c2ccc(=O)n(C)c2)c2ccccc21,-30.49,0.6722,7.273,-5.844
O=C(c1ccnc(-n2ccnc2)c1)N1CCCC(n2ccnc2)C1 (stereo not given),-16.56,-0.6061,10.53,-4.591

5 of the entries, repeated:

| SMILES | A | B | C | D |
|---|---|---|---|---|
| `NCC1(c2cccc(C(F)(F)F)c2)CCCCC1` | -22.84 | 3.758 | 9.091 | -2.018 |
| `CCC[C@@H]1CN(C(=O)c2cc(-c3cccs3)n(C)n2)C[C@H]1N(C)C` | -10.64 | 3.294 | 19.05 | 0.144 |
| `COC[C@@H]1CCC[C@]12CN(Cc1ccco1)CCO2` | 4.997 | 5.945 | 12.82 | 2.905 |
| `CC(=O)Nc1nc(C(=O)NCc2ccc(N3CCCC3)nc2)cs1` | 7.022 | -0.6794 | 7.826 | -0.8946 |
| `O=C(Nc1cc(F)ccc1OCC1CCCO1)NC1CC1` (stereo not given) | -9.32 | -0.1798 | 9.615 | -2.03 |